Mtb cholesterol medium: 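Phenotypic screen: M. tuberculosis growth, cholesterol and DPPC medium, 4 days; the read-out is not stated. Concentration: 50 µM. The record gives no direction; compounds that gave an IC50 in retests scored well above the rest, so higher reads as more growth inhibition. Size under these conditions: about 69,000 compounds, about 370 of them at 50% or above in at least one test.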
Mtb glucose medium: 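Growth of Mycobacterium tuberculosis over 3 days (7H9 medium with glucose and tyloxapol); the read-out is not stated. Tested at 50 µM. Direction is inferred from retests: higher values go with more growth inhibition. About 69,000 compounds were tested under these conditions; 1.1% (about 760) showed 50% or more at least once.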

Each number is a percent effect as filed. How 0% and 100% were set is not recorded. Most values in the screen are low, and negative values occur. This is an unselected part of the compounds tested. Two or more numbers in one place are separate tests of the same structure; such repeats can differ widely.

structure: COCC(=O)N1CCCC(c2nc(N)ncc2-c2cccc(F)c2)C1 (centres undefined)
Mtb cholesterol medium: -8.433%
Mtb glucose medium: 0.7066%

structure: CNS(=O)(=O)c1ccc(C(=O)N2CCCC(n3cccn3)C2)cc1 (centres undefined)
Mtb cholesterol medium: -1.74%
Mtb glucose medium: -17.01%

structure: O=C1CSC(c2ccc(O)c(Cl)c2)c2c(n(C3CCOCC3)[nH]c2=O)N1 (centres undefined)
Mtb cholesterol medium: 10.34%
Mtb glucose medium: 8.826%

structure: O=C(O)C(F)(F)F.[H][C@@]12CN(C(=O)c3ccsc3)C[C@]1([H])C(=O)N(Cc1cccc(C)n1)C2
Mtb cholesterol medium: 3.505%
Mtb glucose medium: 5.903% and 24.11%

structure: COc1cccc(CN2CCN(c3noc(C(C)C)n3)CC2)c1F
Mtb cholesterol medium: 13.55%
Mtb glucose medium: 32.12%

structure: O=C(Nc1cccnc1-n1cc(Br)cn1)C1CCCC1
Mtb cholesterol medium: 7.185%
Mtb glucose medium: -2.528%

structure: O=C(C1CC1)N1Cc2[nH]nc(COCc3cccnc3)c2C1.O=C(O)C(F)(F)F.O=C(O)C(F)(F)F
Mtb cholesterol medium: 5.935%
Mtb glucose medium: -3.582%

structure: O=C(CS(=O)(=O)Cc1ccc(F)cc1)NC1CCCCNC1=O (centres undefined)
Mtb cholesterol medium: 7.606%
Mtb glucose medium: -19.43%

structure: Cc1ccc(N2CCCC(N3CCC(N(C)C)CC3)C2=O)cc1 (centres undefined)
Mtb cholesterol medium: -44.03%
Mtb glucose medium: -14.15%

structure: Cc1nccn1CCN(C)C(=O)C1CCN(C(=O)C2CCCC2)CC1
Mtb cholesterol medium: -2.545%
Mtb glucose medium: -53.61%

structure: CC(C)(CNc1ccccc1S(=O)(=O)C(F)F)N1CCOCC1
Mtb cholesterol medium: 18.2%
Mtb glucose medium: 27.66%

structure: Cc1nn(C)cc1CN(C)C(=O)c1ccccn1
Mtb cholesterol medium: 1.156%
Mtb glucose medium: -12.6%

structure: NCC1(c2cccc(C(F)(F)F)c2)CCOCC1
Mtb cholesterol medium: -8.643% and 3.29%
Mtb glucose medium: 11.86%

structure: CC(C)c1nc2n(n1)CC(NCc1nnc(C3CC3)o1)CC2 (centres undefined)
Mtb cholesterol medium: -21.47%
Mtb glucose medium: -21.04%

structure: O=C(c1cnccn1)N1C[C@@H](c2ccccc2)[C@@]2(CCNC2=O)C1
Mtb cholesterol medium: 25.7%
Mtb glucose medium: 1.975% and 44.17%

structure: c1ccc2c3c([nH]c2c1)C(c1nn[nH]n1)CCC3 (centres undefined)
Mtb cholesterol medium: 6.922%
Mtb glucose medium: 19.51%

structure: [H][C@@]12CS(=O)(=O)C[C@]1([H])N(Cc1nc3ccccc3[nH]1)CCN2C(=O)N(C)C
Mtb cholesterol medium: -4.414% and -4.305%
Mtb glucose medium: -5.283% and -10.39%

structure: Cc1ccc2nnc(C(=O)NCC3CCCC3)nc2c1
Mtb cholesterol medium: 59.26%
Mtb glucose medium: 75.15% and 67.55%

structure: CN(C)c1ncc(CNC(=O)Nc2ccccc2C(F)(F)F)n1C
Mtb cholesterol medium: -24.56%
Mtb glucose medium: -14.47%

structure: CCN(CC)Cc1cn2c(n1)CN(C(=O)c1cnccn1)CC2.O=C(O)C(F)(F)F
Mtb cholesterol medium: -5.197%
Mtb glucose medium: 9.429%

structure: O=C(O)C(F)(F)F.[H][C@@]12CCN(c3ccc(C)nn3)[C@]1([H])CC[C@@H](C(=O)N1CCCCO1)O2
Mtb cholesterol medium: -6.446%
Mtb glucose medium: -6.157%

structure: COc1cccc(CC(C)NCC(=O)Nc2ccccc2C)c1 (centres undefined)
Mtb cholesterol medium: -18.38%
Mtb glucose medium: -3.878%

structure: CN(C)S(=O)(=O)c1ccc2c(c1)N(Cc1nccn1C)CCC2
Mtb cholesterol medium: 25.52%
Mtb glucose medium: 22.96%

structure: Cn1nc2c(cc1=O)CN(Cc1nc(-c3ccco3)no1)CC2
Mtb cholesterol medium: 9.392%
Mtb glucose medium: -5.888%

structure: CCn1c(CC2CCN(C(=O)c3cc(C(C)C)n[nH]3)CC2)n[nH]c1=O
Mtb cholesterol medium: 0.09717%
Mtb glucose medium: 21.12%

structure: Cc1ccsc1C(=O)N1CC(C(=O)N2CCCC2)C2(CCOCC2)C1 (centres undefined)
Mtb cholesterol medium: -7.293% and -20.07%
Mtb glucose medium: -5.623% and 4.332%

structure: CCOc1ccc(C(=O)N(CCOC)Cc2c(C)nn(CC)c2C)o1
Mtb cholesterol medium: -0.8756% and -3.446%
Mtb glucose medium: -17.31%

structure: Cc1noc(OCCOc2ccc(C#N)cc2)n1
Mtb cholesterol medium: 9.289%
Mtb glucose medium: -17.82%

structure: Cc1ccc(-c2nnc(CN3CCCCC3Cn3cncn3)o2)cc1 (centres undefined)
Mtb cholesterol medium: -22.25%
Mtb glucose medium: -0.7973%

structure: [H][C@@]12CCN(C[C@@H]1CN(C)c1ccccc1)[C@@H](CNC(=O)NC(C)C)C2
Mtb cholesterol medium: -10.96%
Mtb glucose medium: -2.183% and -24.04%

structure: COc1c(CNCCNC(=O)c2ccco2)c(C)nn1C
Mtb cholesterol medium: -10.05%
Mtb glucose medium: 4.123%

Repeated from the top, 3 entries:

structure	Mtb cholesterol medium	Mtb glucose medium
COCC(=O)N1CCCC(c2nc(N)ncc2-c2cccc(F)c2)C1 (centres undefined)	-8.433%	0.7066%
CNS(=O)(=O)c1ccc(C(=O)N2CCCC(n3cccn3)C2)cc1 (centres undefined)	-1.74%	-17.01%
O=C1CSC(c2ccc(O)c(Cl)c2)c2c(n(C3CCOCC3)[nH]c2=O)N1 (centres undefined)	10.34%	8.826%

From ChEMBL document CHEMBL3988442, “University of Dundee, Small-Polar-MMV Screening Library” (2021).